# Experimental data taken from EP4389884A1, “EFFICIENT PRODUCTION OF ENANTIOPURE D-3-HYDROXYBUTYRATE” (Schwab, Helmut, priority 2022, dated 2024).
# At least one structure is not confirmed: it was looked up by name or label, or the drawing left a doubt.
# Tested on: polyhydroxybutyrate depolymerase TP0001, Acidovorax sp. BT293, SEQ ID No. 1
# Experiment: Product inhibition of PHB hydrolysis by 3-hydroxybutyrate monomer (autotitration)
# Assay type: biochemical
# Conditions: 1 g PHB in 31 mL 32 mM potassium phosphate buffer containing different amounts of (R)-3-hydroxybutyrate monomers, 1 mg enzyme, 30°C, constant pH; compared with TP0004 (Acidovorax sp. KKS102, T121N, S359N); numbers only in Fig. 4
smiles,measurement,value
C[C@@H](O)CC(=O)O [(R)-3-hydroxybutyrate],product inhibition by 3-hydroxybutyrate,less inhibited at higher (R)-3-hydroxybutyrate concentrations
